Assay results: the supplement of paper PMC6078165

Tested on: Hs578T
Assay: relative JC-1 red fluorescence (viability) vs pre-drug, coculture with fibroblast (fraction); higher = more viable cancer cells
Conditions: 100 µM
Protocol: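 JC-1 labelled TNBC cells cocultured 1:1 (1,500 cells each) with CellTrace Violet stained primary or stromal fibroblasts in 384-well plates in FluoroBrite medium, treated with one of 42 anticancer drugs at 0.1, 1, 10 or 100 uM. JC-1 red fluorescence (mitochondrial integrity in cancer cells only) was read by plate reader every 8 h for 72 h. Values are normalised to each well's pre-drug value. The stock of one drug was tenfold lower, so its dose labels may be too high.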

O=C(O)C1(C(=O)O)CCC1.[NH2-].[NH2-].[Pt+2] [Carboplatin]
Conditions	relative JC-1 red fluorescence
8 h	0.8479
16 h	0.759
24 h	0.72
32 h	0.699
40 h	0.649
48 h	0.618
56 h	0.621
64 h	0.596
72 h	0.597

relative JC-1 red fluorescence
Conditions	8 h	16 h	24 h	32 h	40 h	48 h	56 h	64 h	72 h
coculture fibroblast: C12385	0.787	0.705	0.6682	0.5738	0.521	0.499	0.475	0.474	0.471
coculture fibroblast: H6013	0.847	0.814	0.791	0.765	0.75	0.75	0.734	0.735	0.719
coculture fibroblast: H6019	0.7571	0.687	0.697	0.615	0.599	0.596	0.584	0.589	0.583
coculture fibroblast: H6076	0.866	0.803	0.779	0.777	0.75	0.752	0.748	0.743	0.748
coculture fibroblast: H6231	0.862	0.778	0.6997	0.6539	0.585	0.561	0.523	0.504	0.504
coculture fibroblast: HADF	0.877	0.829	0.787	0.734	0.699	0.68	0.647	0.636	0.615
coculture fibroblast: HCFa	0.833	0.782	0.742	0.69	0.647	0.643	0.619	0.622	0.602
coculture fibroblast: HCPF	0.894	0.824	0.796	0.755	0.691	0.67	0.65	0.608	0.589
coculture fibroblast: HHSteC	0.84	0.798	0.7549	0.7033	0.666	0.64	0.623	0.611	0.592
coculture fibroblast: HMF	0.866	0.7817	0.715	0.671	0.607	0.572	0.545	0.515	0.49
coculture fibroblast: HPFa	0.8629	0.815	0.762	0.705	0.664	0.645	0.607	0.601	0.578
coculture fibroblast: HUF	0.804	0.699	0.675	0.565	0.506	0.47	0.452	0.441	0.442
coculture fibroblast: Hs27A	0.8403	0.796	0.752	0.7057	0.668	0.664	0.636	0.636	0.602
coculture fibroblast: Hs343T	0.8577	0.757	0.7015	0.678	0.61	0.581	0.551	0.525	0.514
coculture fibroblast: WS1	0.75545	0.669	0.62953	0.52	0.461	0.448	0.423	0.417	0.418

The reference is the same well before dosing, and untreated signal decays as well.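 Labels refer to human fibroblasts, largely primary: uterine (C12385, HUF), lung (H6013), bone (Hs27A), adrenal (HADF), skin (WS1), plus mammary HMF and breast cancer-associated Hs343T. Cancer lines are basal-like or mesenchymal-like triple-negative breast cancer. The paper counts as hits responses shifting over 3x the replicate standard deviation. The tissue of the other fibroblasts is not given here.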
